No constants are given. Whether binding was seen depends on the method and setting. For some assays here: Binding calls can cover weak binding; strength is not graded here. For some assays here: Sequences can lack the tags named with a protein. For some assays here: In cells and extracts the contact can be indirect.

Consider five molecules from publication PMC3327665.

Assay [1] has as its target GST-Bmcc1s (mouse). Nature of the assay: pull-down; GST-Bmcc1s or GST on glutathione-sepharose beads, adult mouse brain lysate or lysis buffer only; eluates probed by Western blot with polyclonal anti-MAP6 antibody 23N; only the target purified.
The target of assay [2] is GST-Bmcc1s (mouse). Nature of the assay: condition: 1.5 µg F-STOP with 2 µg GST-Bmcc1s in 300 µl; pull-down; 10 µl glutathione-agarose beads with 2 µg GST-Bmcc1s or 4 µg GST and 1.5 µg of one purified STOP isoform; 2 h at 4°C in PEM buffer plus 50 mM KCl, 0.05% Triton-X100, 1 mM DTT; three washes; SDS-PAGE, Coomassie; both purified.
Assay [3] has as its target GST-Bmcc1s (mouse). Nature of the assay: pull-down; 10 µl glutathione-agarose beads with 2 µg GST-Bmcc1s or 4 µg GST and 1.5 µg of one purified STOP isoform; 2 h at 4°C in PEM buffer plus 50 mM KCl, 0.05% Triton-X100, 1 mM DTT; three washes; SDS-PAGE, Coomassie; both purified.

B1: MAP6 fibroblast isoform F-STOP (42 kDa), endogenous (protein, UniProt Q7TSJ2-3 1-306)
chain: MQLSADARDPEGAGGAGVLAAGKASGVDQRDTRRKAGPAWMVTRNEGHEEKPLPPAQSQTQEGGPAAGKASGADQRDTRRKAGPAWMVTRSEGHEEKPLPPAQSQTQEGGPAAGKASGADQRDTRRKAGPAWMVTRTEGHEETPLPPAQSQTQEGGPAAGKASGADERDTRRKAGPAWMVRRSEGHEQTPAAHAQGTGPEGGKGRAVADALNRQIREEVASTVSSSYRNEFRAWTDIKPVKPIKAKPQYKPPDDKMVHETSYSAQFKGEANKPSAADNKAMDRRRIRSLYSEPFKECPKEPGQTHQ
Consider B1, for which, in the assay with GST-Bmcc1s (mouse) [1], the binding entry is recorded as “no binding”.

B2: purified F-STOP (His-tagged MAP6 fibroblast isoform) (protein, UniProt Q7TSJ2-3 1-306)
chain: MQLSADARDPEGAGGAGVLAAGKASGVDQRDTRRKAGPAWMVTRNEGHEEKPLPPAQSQTQEGGPAAGKASGADQRDTRRKAGPAWMVTRSEGHEEKPLPPAQSQTQEGGPAAGKASGADQRDTRRKAGPAWMVTRTEGHEETPLPPAQSQTQEGGPAAGKASGADERDTRRKAGPAWMVRRSEGHEQTPAAHAQGTGPEGGKGRAVADALNRQIREEVASTVSSSYRNEFRAWTDIKPVKPIKAKPQYKPPDDKMVHETSYSAQFKGEANKPSAADNKAMDRRRIRSLYSEPFKECPKEPGQTHQ
For B2, the binding entry in the assay with GST-Bmcc1s (mouse) [2] is given as “no binding”.

B3: purified E-STOP (His-tagged MAP6 neuronal isoform) (protein, UniProt Q63560-2 1-660)
chain: MAWPCITRACCIARFWNQLDKADIAVPLVFTKYSEATEHPGAPPQPPAPPQPGLAPPSRAVAIETQPAQGESDAVARATGPAPGPSGDRETAAAPGRSGLGLGAASGSTSGSGPADSVMRQDYRAWKVQRPEPSCRPRSEYQPSDAPFERETQYQKDFRAWPLPRRGDHPWIPKPVQIPATSQPSPPVLGMPKRRPQSQERGPIQLSADARDPEGAGGAGVPAAGKASGADQRDTRRKAGPAWMVTRTEGHEEKPLPPAQSQTQEGGPAAGKASGADQRDTRRKAGPAWMVTRTEGHEEKPLPPAQSQTQEGGPAAGKASGADQRDTRRKAGPAWMVTRTEGHEEKPLPPAQSQTQEGGPAAGKASGADQRDTRRKAGPAWMVTRTEGHEETPLPPAQSQTQEGGPAAGKASGADQRDTRRKAGPAWMVTRTEGHEETPLPPAQSQTQEGGPAAGKASGADERDTRRKAGPAWMVRRSEGHEQTTAAHAQGTGPEGGKGRAVADALNRQIREEVTSTVSSSYRNEFRAWTDIKPVKPIKAKPQYKPPDDKMVHETSYSAQFKGEASKPTTADNKVVDRRRIRSLYSEPFKESPKVEKPSVQSSKPKKTSTSQKPLRKAKDKQVASGQAAKKKTTESPSATKPDDKEQSKEMNNKLAEAKE
As for B3, in the assay with GST-Bmcc1s (mouse) [3], the binding result is reported as “binds”.

B4: MAP6 neuronal isoform E-STOP (80 kDa), endogenous (protein, UniProt Q7TSJ2-2 1-568)
chain: MAWPCITRACCIARFWNQLDKADIAVPLVFTKYSEATEHPGAPPQPPAPLQPALAPPSRAVAIETQPAQGESDAVARATGPAPGPSVDRETVAAPGRSGLGLGAASASTSGSGPADSVMRQDYRAWKVQRPEPSCRPRSEYQPSDAPFERETQYQKDFRAWPLPRRGDHPWIPKPVQIPATSQPSQPVLGVPKRRPQSQERGPMQLSADARDPEGAGGAGVLAAGKASGVDQRDTRRKAGPAWMVTRNEGHEEKPLPPAQSQTQEGGPAAGKASGADQRDTRRKAGPAWMVTRSEGHEEKPLPPAQSQTQEGGPAAGKASGADQRDTRRKAGPAWMVTRTEGHEETPLPPAQSQTQEGGPAAGKASGADERDTRRKAGPAWMVRRSEGHEQTPAAHAQGTGPEGGKGRAVADALNRQIREEVASTVSSSYRNEFRAWTDIKPVKPIKAKPQYKPPDDKMVHETSYSAQFKGEANKPSAADNKAMDRRRIRSLYSEPFKECPKVEKPSVQSSKPKKTSTSHKPPRKAKDKQVVSGQAAKKKTTEGPSATKPDDKEQSKEMNNKLAEAKE
Regarding B4, the binding entry with GST-Bmcc1s (mouse) [1] is given as “binds”.

B5: purified N-STOP (His-tagged MAP6 neuronal isoform) (protein, UniProt Q63560-1 1-952)
chain: MAWPCITRACCIARFWNQLDKADIAVPLVFTKYSEATEHPGAPPQPPAPPQPGLAPPSRAVAIETQPAQGESDAVARATGPAPGPSGDRETAAAPGRSGLGLGAASGSTSGSGPADSVMRQDYRAWKVQRPEPSCRPRSEYQPSDAPFERETQYQKDFRAWPLPRRGDHPWIPKPVQIPATSQPSPPVLGMPKRRPQSQERGPIQLSADARDPEGAGGAGVPAAGKASGADQRDTRRKAGPAWMVTRTEGHEEKPLPPAQSQTQEGGPAAGKASGADQRDTRRKAGPAWMVTRTEGHEEKPLPPAQSQTQEGGPAAGKASGADQRDTRRKAGPAWMVTRTEGHEETPLPPAQSQTQEGGPAAGKASGADQRDTRRKAGPAWMVTRTEGHEETPLPPAQSQTQEGGPAAGKASGADERDTRRKAGPAWMVRRSEGHEQTTAAHAQGTGPEGGKGRAVADALNRQIREEVTSTVSSSYRNEFRAWTDIKPVKPIKAKPQYKPPDDKMVHETSYSAQFKGEASKPTTADNKVVDRRRIRSLYSEPFKESPKVEKPSVQSSKPKKTSTSQKPLRKAKDKQVASGQAAKKKTTESPSATKPDDKEQSKEMNNKLAEAKESRVKPTSDKNQGPVAKEPHKDQGPVAPGLPKGQGPAVQEPLKDQGPMVPGLPKDQAPVVPGSLKGQSPTAPGPPKDQGAVLLGPMKDLGPVAPASVKDQDHMASELLKNKDSVPLAPAKAQSPLLPEPLKNQSPVVPARAKDQSFPAPAPTPLKDPGPVIPEPEKDGAPMVPERRKDQNASIMASLKNEAPVASESVKNQGLGGPEPAKDTGTDLKGHGSVFVAPVKSQGPVVPEPTKGQDPIIPALAKDQGPILPEPPKNQGPPVVLGPIKNQDPVIPVPLKGQDPVVPAPTKDPGPTAPDPLKSQGPRGPQLPTVSPSPPVMIPTVPHAEYIEGSP
B5: the binding entry in the assay with GST-Bmcc1s (mouse) [3] is listed as “binds”.
